Repeats are few or missing, and single values can be far off.
test system: DHK short-chain dehydrogenase reductase (Debaryomyces hansenii, Q6BTD7); test: apparent turnover number kcat for ketone reduction (NADPH consumption, 100 uM substrate) (s-1); higher = faster reduction of the ketone by the enzyme; settings: substrate concentration 100 µM; NADPH 100 µM; pH 7.4; 25 °C
Procedure: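 Purified N-His6 DHK (unannotated SDR, Debaryomyces hansenii) was screened against a prochiral ketone library: 100 uM substrate, 100 uM NADPH, 1% BSA, 4% DMSO in 100 mM sodium phosphate / 100 mM NaCl pH 7.4 at 25 C, ~27 nM enzyme. Rate was followed by NADPH depletion at 340 nm and reported as apparent kcat (s-1) at a single substrate concentration; no replicates stated.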

SMILES | apparent turnover number kcat
Cc1ccc(O)c(C(=O)c2cnc3cc4c(cc3c2)OCCO4)c1 | 4.66
Cc1cc(O)cc(O)c1C(=O)Cc1cnn(-c2ccccc2)c1 | 3.18
O=C1OC(c2cccc([N+](=O)[O-])c2)C(C(=O)c2ccccc2)=C1O (centres undefined) | 0.462
O=C(Cn1nnc([N+](=O)[O-])n1)c1ccccc1 | 4.88
COC(=O)c1cc2cc(CC(=O)c3ccc(O)cc3O)ccc2o1 | 0.311
N#Cc1cc(C(=O)c2ccccc2O)coc1=O | 7.97
CC(=O)c1ccc(NS(=O)(=O)c2cc([N+](=O)[O-])c(C)cc2C)cc1 | 5.36
O=C(CN1C(=O)c2ccccc2C1=O)OCC(=O)c1ccc(Br)cc1 | 2.6
O=C(CN1C(=O)NC2(CCCC2)C1=O)OCC(=O)c1ccc(Cl)s1 | 4.44
Cc1[nH]c2ccccc2c1C(=O)CSc1nnc(-c2cccnc2)o1 | 4.56
CCN1C(=O)C(=O)N(CC(=O)c2cc(C)n(-c3ccccc3)c2C)C1=O | 3.73
CSc1ncc(Cl)c(C(=O)C(C#N)c2nc3ccccc3c(=O)[nH]2)n1 (centres undefined) | 4.45
O=C(NCc1nnnn1-c1ccc(F)cc1)C(=O)c1c[nH]c2ccccc12 | 4.37
O=C(CN1C(=O)c2ccccc2C1=O)OCC(=O)c1ccc(Cl)cc1Cl | 7.04
N#CC(C(=O)COC(=O)c1n[nH]c2ccccc12)=C1Nc2ccccc2N1 | 4.97
O=C1COc2ccc(C(=O)COC(=O)c3ccccc3Cl)cc2N1 | 4.47
Cc1[nH]c2ccccc2c1C(=O)C(=O)Nc1c(C(N)=O)oc2ccccc12 | 3.42
COc1ccc(O)c(C(=O)c2cc(C#N)c(=O)n(-c3ccccc3F)c2)c1 | 2.35
Cc1oc2c(c1C(=O)c1ccc(Br)cc1)C(=O)C(=O)c1ccccc1-2 | 3.52
O=C1COc2ccc(C(=O)COC(=O)c3ccco3)cc2N1 | 4.89
Cc1ccc(C)c(C(=O)CSc2nnnn2-c2ccccc2)c1 | 5.29
Cc1cccc(C(=O)OCC(=O)C(C#N)=C2Nc3ccccc3N2)c1O | 4.53
COc1ccccc1NC=C1C(=O)CC(c2ccccc2)CC1=O (centres undefined) | 4.2
O=C(COC(=O)CN1C(=O)C(=O)c2ccccc21)NCc1ccco1 | 3.78
Cn1c(N)c(C(=O)c2ccc(Oc3ccccc3)cc2)c(=O)n(C)c1=O | 4.48
COc1ccc(O)c(C(=O)c2cnc3ccc4ccccc4c3c2)c1 | 3.53
Cc1ccc(C(=O)c2coc3c2C(=O)C(=O)C(Br)=C3)cc1 | 3.5

Some of the entries so far, field by field:
Cc1ccc(O)c(C(=O)c2cnc3cc4c(cc3c2)OCCO4)c1
  apparent turnover number kcat: 4.66
Cc1cc(O)cc(O)c1C(=O)Cc1cnn(-c2ccccc2)c1
  apparent turnover number kcat: 3.18

(continued)

SMILES | apparent turnover number kcat
Cc1c(C(=O)OCC(=O)c2c(N)n(CC(C)C)c(=O)n(C)c2=O)oc2ccccc12 | 3.56
Cc1ccc2c(c1)C(=O)C(=O)N2CCOc1ccc2ccccc2c1 | 4.38
O=C(c1cnn(C(=O)c2ccncc2)c1)c1ccccc1O | 5.25
Cc1sc2nc(SCC(=O)c3ccc(O)c(O)c3)[nH]c(=O)c2c1C | 4.84
O=C(CSC(=S)N1CCOCC1)c1ccccc1 | 3.13
Cc1ccc(C(=O)c2ccc(N3CCOCC3)c([N+](=O)[O-])c2)cc1 | 3.71
CC(=O)c1cccc(N(CC(=O)Nc2ccccc2Br)S(C)(=O)=O)c1 | 4.18
N#Cc1ccc(C(=O)OCC(=O)c2cc3ccccc3o2)cc1 | 4.51
COc1ccc(CC(=O)c2c(O)cc(O)cc2O)cc1OC | 8.48
Cc1[nH]c2ccccc2c1C(=O)COC(=O)CN1CCCCCC1=O | 7.87
CC(=O)c1cccc(N(CC(=O)Nc2ccccc2Cl)S(C)(=O)=O)c1 | 4.2
CC(=O)c1ccc(NC(=O)COC(=O)c2n[nH]c3ccccc23)cc1 | 3.56
CC(=O)c1cccc(S(=O)(=O)Nc2sc3c(c2C(N)=O)CCC3)c1 | 5.62
CC(=O)c1ccc(NS(=O)(=O)c2cc(C(=O)[O-])ccc2Cl)cc1 | 7.42
O=C(CCN1C(=O)c2cccc([N+](=O)[O-])c2C1=O)OCC(=O)c1ccc(F)cc1 | 3.97
O=C1c2ccccc2C(=O)c2c(NC(=O)c3cccc4c3C(=O)c3ccccc3-4)cccc21 | 2.96
O=C(CC(=O)c1ccc([N+](=O)[O-])cc1)Nc1ccc2c(c1)OCO2 | 6.21
COc1ccc(C(=O)COC(=O)CN2C(=O)c3cccc([N+](=O)[O-])c3C2=O)cc1 | 3.33
O=C(CN1C(=O)c2cccc([N+](=O)[O-])c2C1=O)OCC(=O)c1ccc(Cl)c(Cl)c1 | 4.46
CC1=CC(=NOC(=O)c2ccc([N+](=O)[O-])cc2)C=C(C)C1=O | 3.23
O=C(CN1C(=O)c2cc(Br)c([N+](=O)[O-])cc2C1=O)OCC(=O)c1ccccc1 | 3.14
CC(=O)N(C1=C(Cl)C(=O)c2ccccc2C1=O)c1ccc(F)c(F)c1 | 5.25
CC(=O)N(C1=C(Cl)C(=O)c2ccccc2C1=O)c1cccc(F)c1 | 3.5
O=C(CN1C(=O)c2ccccc2C1=O)OCC(=O)c1ccc2c(c1)OCO2 | 4.26
O=C(CN1C(=O)c2ccccc2C1=O)OCC(=O)c1c[nH]c2ccccc12 | 6.02
CC(=O)C1=C(O)C(=O)N(CC(=O)[O-])C1c1cccc([N+](=O)[O-])c1 (centres undefined) | 5.24
Cc1cc(C)nc(SCC(=O)c2ccc(O)c(O)c2)n1 | 8.14

SMILES | apparent turnover number kcat
CC1(C)CC(=O)c2c(oc3ccc(NS(=O)(=O)c4ccc(Cl)cc4)cc23)C1 | 0.00571
CCOc1ccc(NC(=O)CN2C(=O)C(=O)c3ccccc32)cc1 | 5.02
O=C1C=C(NNC(=O)c2cccnc2)CCC1 | 5.28
CC(=O)c1sc2nc(CSc3cc(C)c4cc(C)cc(C)c4n3)[nH]c(=O)c2c1C | 4.97
O=C(CSc1nnc2ccccn12)c1cc2ccccc2o1 | 6.11
CN1C(=O)C(O)=C(C(=O)c2ccc(Br)cc2)C1c1ccc([N+](=O)[O-])cc1 (centres undefined) | 10.9
O=C(CSc1ncnc2[nH]cnc12)c1ccc2ccccc2c1 | 3.29
Cc1c(O)ccc(C(=O)CN2C(=O)c3ccccc3C2=O)c1O | 5.82
O=C([O-])c1ccccc1C(=O)c1cccc(S(=O)(=O)N2CCOCC2)c1 | 3.08
COc1ccc(C(=O)CSc2nnc(-c3ccc(F)cc3)o2)cc1 | 7.22
O=C(CSc1nc2ccccc2o1)c1nnc(-c2ccccc2)o1 | 4.07
CC(NCc1ccc2c(c1)OCO2)=C1C(=O)c2ccccc2C1=O | 4.88
O=C(CSc1nnc(-c2ccccc2Cl)[nH]1)c1ccc(O)c(O)c1 | 0.437
CC(=O)c1ccc(O)c(CSc2nnc(-c3ccc(Br)cc3)o2)c1 | 7.9
COc1ccc(C(=O)CSc2nc(=O)[nH]c3c2CCC3)cc1 | 6.52
O=C(COC(=O)c1ccc2ccccc2n1)c1ccc([N+](=O)[O-])cc1 | 3.89
O=C(CNc1ccc2c(c1)oc1ccccc12)c1ccc([N+](=O)[O-])cc1 | 2.99
O=C(Cn1cc(C(=O)c2ccccc2)c2ccccc21)NCc1ccc2c(c1)OCO2 | 3.43
O=C(CN1C(=O)c2ccc(Br)cc2C1=O)OCC(=O)c1ccc(Cl)cc1 | 2.35
O=C1c2cc(S(=O)(=O)Nc3ccc(F)cc3)ccc2-c2ccc(S(=O)(=O)Nc3ccc(F)cc3)cc21 | 4.16
O=C(NNC(=O)c1ccccc1)C(=O)C1C(=O)Nc2ccccc21 (centres undefined) | 6.42
Cc1ccc(S(=O)(=O)CC(=O)c2cccc([N+](=O)[O-])c2)cc1 | 4.78
CCCn1c(N)c(C(=O)CSc2nnc(N)s2)c(=O)[nH]c1=O | 8.15
CN1C(=O)C(O)=C(C(=O)c2ccc(Br)cc2)C1c1cccc([N+](=O)[O-])c1 (centres undefined) | 4.03
Nc1c(C(=O)CCl)c(=O)[nH]c(=O)n1Cc1ccccc1 | 6.1
